The supplement of paper PMC10849652
Some of the results follow.

By UniProt entry, the sequences of proteins in these tests, tags left out. Where a name states a change or a piece, a line headed by the entry shows the natural chain unless it says otherwise.
UniProt Q86VV8: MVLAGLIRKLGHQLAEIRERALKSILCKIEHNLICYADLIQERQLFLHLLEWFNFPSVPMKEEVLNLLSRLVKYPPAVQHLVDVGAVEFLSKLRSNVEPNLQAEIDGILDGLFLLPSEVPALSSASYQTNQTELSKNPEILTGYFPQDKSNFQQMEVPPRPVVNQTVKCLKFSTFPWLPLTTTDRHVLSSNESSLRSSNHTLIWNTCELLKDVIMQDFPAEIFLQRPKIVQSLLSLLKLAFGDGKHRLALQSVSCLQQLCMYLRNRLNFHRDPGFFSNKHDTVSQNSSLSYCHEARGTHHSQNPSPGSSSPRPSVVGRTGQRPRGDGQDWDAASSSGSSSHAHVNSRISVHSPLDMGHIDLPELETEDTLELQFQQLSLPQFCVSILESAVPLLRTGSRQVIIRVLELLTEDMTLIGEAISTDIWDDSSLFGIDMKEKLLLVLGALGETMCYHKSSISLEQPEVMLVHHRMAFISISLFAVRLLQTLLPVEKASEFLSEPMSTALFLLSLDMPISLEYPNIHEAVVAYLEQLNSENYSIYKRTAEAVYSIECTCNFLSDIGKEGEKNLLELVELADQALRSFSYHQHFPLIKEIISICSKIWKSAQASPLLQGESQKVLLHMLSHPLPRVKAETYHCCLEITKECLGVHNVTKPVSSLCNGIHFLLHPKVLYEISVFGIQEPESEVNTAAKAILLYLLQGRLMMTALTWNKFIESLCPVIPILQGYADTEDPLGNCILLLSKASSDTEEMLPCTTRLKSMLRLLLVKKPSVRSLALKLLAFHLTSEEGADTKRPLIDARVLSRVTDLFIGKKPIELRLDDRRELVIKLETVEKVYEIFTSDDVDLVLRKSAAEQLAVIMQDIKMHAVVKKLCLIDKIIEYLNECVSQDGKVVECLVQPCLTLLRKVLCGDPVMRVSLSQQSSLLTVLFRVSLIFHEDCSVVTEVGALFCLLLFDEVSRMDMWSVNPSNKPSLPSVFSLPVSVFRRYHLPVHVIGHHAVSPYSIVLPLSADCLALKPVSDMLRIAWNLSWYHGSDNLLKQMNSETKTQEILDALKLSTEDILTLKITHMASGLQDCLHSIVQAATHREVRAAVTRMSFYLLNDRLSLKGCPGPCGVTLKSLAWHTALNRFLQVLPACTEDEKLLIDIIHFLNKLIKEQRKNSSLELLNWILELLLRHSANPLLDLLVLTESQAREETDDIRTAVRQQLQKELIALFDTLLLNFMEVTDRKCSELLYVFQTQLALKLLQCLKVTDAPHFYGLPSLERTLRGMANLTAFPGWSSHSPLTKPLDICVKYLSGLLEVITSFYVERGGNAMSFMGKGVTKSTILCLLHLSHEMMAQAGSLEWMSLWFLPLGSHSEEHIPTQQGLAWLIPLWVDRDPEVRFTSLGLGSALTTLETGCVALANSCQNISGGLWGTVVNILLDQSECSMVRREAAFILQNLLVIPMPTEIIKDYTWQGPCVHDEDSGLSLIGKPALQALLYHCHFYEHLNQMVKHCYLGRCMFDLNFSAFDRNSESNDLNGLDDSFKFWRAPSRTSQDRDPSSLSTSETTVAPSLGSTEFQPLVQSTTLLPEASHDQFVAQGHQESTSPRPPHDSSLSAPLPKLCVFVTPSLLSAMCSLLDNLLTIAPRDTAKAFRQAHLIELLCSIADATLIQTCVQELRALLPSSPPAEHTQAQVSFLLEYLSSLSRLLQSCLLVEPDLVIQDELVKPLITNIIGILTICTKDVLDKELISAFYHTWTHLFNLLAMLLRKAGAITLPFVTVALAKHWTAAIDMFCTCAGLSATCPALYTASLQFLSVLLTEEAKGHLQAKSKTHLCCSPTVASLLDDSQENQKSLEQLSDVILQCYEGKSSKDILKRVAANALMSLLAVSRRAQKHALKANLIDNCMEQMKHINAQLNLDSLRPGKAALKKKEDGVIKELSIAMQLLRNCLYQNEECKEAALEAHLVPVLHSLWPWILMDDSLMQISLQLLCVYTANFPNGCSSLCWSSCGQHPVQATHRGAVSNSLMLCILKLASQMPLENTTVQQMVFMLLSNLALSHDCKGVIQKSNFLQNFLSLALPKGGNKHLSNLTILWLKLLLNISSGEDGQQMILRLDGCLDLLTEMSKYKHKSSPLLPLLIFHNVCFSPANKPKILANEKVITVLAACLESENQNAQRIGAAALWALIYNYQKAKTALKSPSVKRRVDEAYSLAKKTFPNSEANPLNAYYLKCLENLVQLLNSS
UniProt P31949: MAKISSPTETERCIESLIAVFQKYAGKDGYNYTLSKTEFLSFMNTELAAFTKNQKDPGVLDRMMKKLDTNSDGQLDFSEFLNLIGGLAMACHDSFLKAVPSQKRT
UniProt P57060: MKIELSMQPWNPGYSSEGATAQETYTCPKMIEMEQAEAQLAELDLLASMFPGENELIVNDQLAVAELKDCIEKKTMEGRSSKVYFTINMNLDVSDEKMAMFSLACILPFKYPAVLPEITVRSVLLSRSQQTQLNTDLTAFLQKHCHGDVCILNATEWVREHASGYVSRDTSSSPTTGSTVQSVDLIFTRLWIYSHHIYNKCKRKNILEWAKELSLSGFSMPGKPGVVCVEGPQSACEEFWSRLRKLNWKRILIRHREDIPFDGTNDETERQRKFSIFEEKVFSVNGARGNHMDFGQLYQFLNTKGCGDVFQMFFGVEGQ
UniProt Q92766: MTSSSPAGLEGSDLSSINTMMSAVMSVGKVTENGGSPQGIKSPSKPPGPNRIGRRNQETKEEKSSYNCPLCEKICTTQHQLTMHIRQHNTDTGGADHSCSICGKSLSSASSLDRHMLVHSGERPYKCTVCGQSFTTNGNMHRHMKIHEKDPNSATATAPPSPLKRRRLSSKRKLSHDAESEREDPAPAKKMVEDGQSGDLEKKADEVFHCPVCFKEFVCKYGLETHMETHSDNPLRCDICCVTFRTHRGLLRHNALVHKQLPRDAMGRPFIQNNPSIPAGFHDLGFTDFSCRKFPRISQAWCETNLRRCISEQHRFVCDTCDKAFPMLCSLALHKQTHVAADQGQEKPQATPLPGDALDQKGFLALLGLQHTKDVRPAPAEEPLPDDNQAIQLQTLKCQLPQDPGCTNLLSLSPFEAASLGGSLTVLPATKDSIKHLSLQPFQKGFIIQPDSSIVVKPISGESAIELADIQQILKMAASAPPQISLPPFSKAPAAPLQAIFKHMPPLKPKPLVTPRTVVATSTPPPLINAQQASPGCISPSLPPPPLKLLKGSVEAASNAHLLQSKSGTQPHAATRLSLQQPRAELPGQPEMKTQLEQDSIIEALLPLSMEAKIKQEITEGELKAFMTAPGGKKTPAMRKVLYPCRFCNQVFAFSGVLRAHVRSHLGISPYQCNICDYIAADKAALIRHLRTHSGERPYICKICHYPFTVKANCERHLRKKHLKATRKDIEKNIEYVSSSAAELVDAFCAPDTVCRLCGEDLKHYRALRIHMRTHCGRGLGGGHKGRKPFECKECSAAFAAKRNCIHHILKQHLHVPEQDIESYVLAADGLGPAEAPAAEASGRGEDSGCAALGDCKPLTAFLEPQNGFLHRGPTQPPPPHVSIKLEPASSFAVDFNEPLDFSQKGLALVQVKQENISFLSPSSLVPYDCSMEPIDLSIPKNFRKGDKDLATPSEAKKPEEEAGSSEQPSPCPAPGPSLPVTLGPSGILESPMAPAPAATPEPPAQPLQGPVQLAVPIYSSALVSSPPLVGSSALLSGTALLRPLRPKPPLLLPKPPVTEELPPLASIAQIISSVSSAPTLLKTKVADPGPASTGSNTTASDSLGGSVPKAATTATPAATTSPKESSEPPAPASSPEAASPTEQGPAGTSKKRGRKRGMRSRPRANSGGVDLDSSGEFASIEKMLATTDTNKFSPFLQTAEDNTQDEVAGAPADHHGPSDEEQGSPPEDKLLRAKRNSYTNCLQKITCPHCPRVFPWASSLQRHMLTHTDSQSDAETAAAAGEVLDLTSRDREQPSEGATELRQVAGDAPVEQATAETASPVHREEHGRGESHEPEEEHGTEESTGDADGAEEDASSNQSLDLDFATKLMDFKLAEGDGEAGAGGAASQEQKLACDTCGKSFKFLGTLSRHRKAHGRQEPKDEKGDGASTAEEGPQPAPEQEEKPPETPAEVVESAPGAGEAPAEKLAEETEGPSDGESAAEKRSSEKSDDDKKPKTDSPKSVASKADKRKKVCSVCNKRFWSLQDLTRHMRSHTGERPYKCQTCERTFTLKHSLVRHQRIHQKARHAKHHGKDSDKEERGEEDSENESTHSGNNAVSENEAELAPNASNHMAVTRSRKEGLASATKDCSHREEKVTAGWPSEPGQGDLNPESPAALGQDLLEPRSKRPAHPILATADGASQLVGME
UniProt Q8N5L8: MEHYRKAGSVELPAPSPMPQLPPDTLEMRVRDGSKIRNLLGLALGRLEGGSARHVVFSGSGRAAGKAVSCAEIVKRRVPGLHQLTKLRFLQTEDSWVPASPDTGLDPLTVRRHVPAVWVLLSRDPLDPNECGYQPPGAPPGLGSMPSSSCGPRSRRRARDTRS
UniProt Q96T23: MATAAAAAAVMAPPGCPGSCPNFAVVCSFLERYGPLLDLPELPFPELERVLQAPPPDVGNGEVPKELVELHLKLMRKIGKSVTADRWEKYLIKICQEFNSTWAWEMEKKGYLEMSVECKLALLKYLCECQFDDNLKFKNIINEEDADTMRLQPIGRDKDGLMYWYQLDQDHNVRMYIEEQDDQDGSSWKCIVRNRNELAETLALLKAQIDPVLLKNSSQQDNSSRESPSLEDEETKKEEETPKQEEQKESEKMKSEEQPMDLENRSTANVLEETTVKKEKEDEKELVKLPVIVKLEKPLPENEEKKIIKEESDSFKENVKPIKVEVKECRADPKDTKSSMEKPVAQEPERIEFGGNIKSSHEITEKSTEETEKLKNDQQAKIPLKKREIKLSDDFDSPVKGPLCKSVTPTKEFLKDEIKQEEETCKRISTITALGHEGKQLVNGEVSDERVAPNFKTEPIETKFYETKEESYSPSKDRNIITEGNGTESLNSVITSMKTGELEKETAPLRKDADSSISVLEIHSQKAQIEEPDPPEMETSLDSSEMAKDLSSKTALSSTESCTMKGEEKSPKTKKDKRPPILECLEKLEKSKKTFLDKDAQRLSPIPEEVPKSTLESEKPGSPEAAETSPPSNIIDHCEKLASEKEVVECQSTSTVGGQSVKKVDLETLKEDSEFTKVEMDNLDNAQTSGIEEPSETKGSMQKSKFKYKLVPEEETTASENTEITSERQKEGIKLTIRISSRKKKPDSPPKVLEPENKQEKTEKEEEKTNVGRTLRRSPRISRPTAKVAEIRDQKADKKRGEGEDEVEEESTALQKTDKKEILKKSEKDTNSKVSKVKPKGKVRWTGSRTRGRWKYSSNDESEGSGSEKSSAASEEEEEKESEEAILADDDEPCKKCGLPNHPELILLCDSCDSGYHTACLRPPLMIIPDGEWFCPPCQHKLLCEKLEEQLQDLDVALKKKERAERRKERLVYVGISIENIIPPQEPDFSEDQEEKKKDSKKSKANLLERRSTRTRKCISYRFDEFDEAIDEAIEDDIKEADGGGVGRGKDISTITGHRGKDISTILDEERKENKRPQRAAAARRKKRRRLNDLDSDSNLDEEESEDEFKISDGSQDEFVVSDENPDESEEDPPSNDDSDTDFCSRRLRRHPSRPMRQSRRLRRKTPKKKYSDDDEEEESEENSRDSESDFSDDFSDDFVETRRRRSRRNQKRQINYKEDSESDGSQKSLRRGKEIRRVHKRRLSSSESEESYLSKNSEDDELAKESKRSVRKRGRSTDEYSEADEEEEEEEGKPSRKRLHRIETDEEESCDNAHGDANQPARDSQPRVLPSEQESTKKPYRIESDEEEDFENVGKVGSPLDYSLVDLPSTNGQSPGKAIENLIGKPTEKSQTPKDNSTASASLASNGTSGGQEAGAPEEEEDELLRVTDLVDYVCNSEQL
UniProt Q9HCY8: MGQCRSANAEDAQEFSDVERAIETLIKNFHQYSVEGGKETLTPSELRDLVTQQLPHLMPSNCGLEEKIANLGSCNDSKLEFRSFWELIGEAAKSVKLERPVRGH
UniProt Q9Y3A4: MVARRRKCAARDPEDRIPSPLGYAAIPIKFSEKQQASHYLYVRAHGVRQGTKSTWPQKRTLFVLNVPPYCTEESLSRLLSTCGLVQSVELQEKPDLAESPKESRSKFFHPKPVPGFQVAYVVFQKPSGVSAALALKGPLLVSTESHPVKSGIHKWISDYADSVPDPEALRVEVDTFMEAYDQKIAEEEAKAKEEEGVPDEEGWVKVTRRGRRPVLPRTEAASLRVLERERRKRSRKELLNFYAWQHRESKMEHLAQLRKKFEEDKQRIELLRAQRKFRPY

These targets were tested with CC1=C(C2=C(C=C1)C(=O)C3=CC=CC=C3N2CCCN)C (assay: log2 fold change, soluble protein after heating vs DMSO (PISA); higher = thermal stabilisation; K562 lysate, 10 uM; active = over 0.2 and 3.5 SD of the protein, either way, in both replicates (recomputed)).
How it was run: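 Quantification was by TMTpro 16plex LC-MS/MS with equalised channel sums, applied to the supernatant after 21,000xg for 90 min. Samples were crude K562 extract at 1 mg/mL protein in PBS pH 7.4 with 1 mM MgCl2, treated with 10 μM compound for 30 min, heated for 3 min across 48°C-58°C, pooled and brought to 0.5% NP-40 at 4°C. Values are log-two fold changes in thermal stability relative to solvent controls, from duplicates.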

| Target | log2 fold change |
| --- | --- |
| RPS27L (UniProt Q71UM5) | inactive: -0.049 |
| RTTN (UniProt Q86VV8) | inactive: 0.015 |
| S100A11 (UniProt P31949) | inactive: 0.003 |
| RTCA (UniProt O00442) | inactive: 0.005 |
| RSRC2 (UniProt Q7L4I2) | inactive: 0.039 |
| RYR1 (UniProt P21817) | inactive: -0.014 |
| RSAD1 (UniProt Q9HA92) | inactive: -0.398 |
| RPS26 (UniProt P62854) | inactive: -0.089 |
| RPP38 (UniProt P78345) | inactive: 0.004 |
| RPUSD4 (UniProt Q96CM3) | inactive: -0.184 |
| RWDD2B (UniProt P57060) | inactive: 0.016 |
| RREB1 isoform 2 (UniProt Q92766) | inactive: 0.031 |
| RPP25L (UniProt Q8N5L8) | inactive: -0.019 |
| RSF1 (UniProt Q96T23) | inactive: 0.064 |
| RPS7, A0A2R8Y623 | inactive: 0.218 |
| S100A14 (UniProt Q9HCY8) | inactive: 0.359 |
| RPS6KA3 (UniProt P51812) | inactive: -0.02 |
| RXRB isoform 3 (UniProt P28702) | inactive: -0.005 |
| RSBN1L (UniProt Q6PCB5) | inactive: -0.059 |
| RPN2 (UniProt P04844) | inactive: 0.021 |
| RPS2 (UniProt P15880) | inactive: -0.059 |
| RPS3A (UniProt P61247) | inactive: -0.049 |
| RRP7A (UniProt Q9Y3A4) | inactive: -0.041 |

Some of the entries so far, with tabs:
Target	log2 fold change
RYR1 (UniProt P21817)	inactive: -0.014
RWDD2B (UniProt P57060)	inactive: 0.016
